This note sets out measurements from patent US20180264110A1.

These are yes or no findings as the source states them, for the method shown. A result given as binding can be weak or reduced; the word gives no strength.

In this assay the target is BTLA, PNGaseF +. Description: dot blot: deglycosylated BTLA (PNGaseF +), 0.5 µg/well on nitrocellulose, anti-mouse-HRP detection; well taken from the layout of FIG. 1A.

B1: STC626 (antibody, V domains shown)
VH: QIQLVQSGPELKKPGETVKISCKASGYTFTNYGMNWVKQAPGKGLKWMGWINTNTGEPTYAEEFKGRIAFSLESSASTAYLQINNLKNEDTATYFCAREGVRRGGYFFDYWGQGTTLTVSS
VL: DIQMTQSPASLSVSVGETVTITCRASENIYSNLAWYQQKQGKSPQLLVYAATNLADGVPSRFSGSGSGTQYSLKINSLQSEDFGSYHCQHFWGFPFTFGAGTKLEIKR
As to B1, the binding entry is “binds”.
